According to article PMC12584617:

What was measured:
[1] = system: T1, NsrM (All0345) (Anabaena sp. strain PCC 7120); assay: EMSA; settings: 10 mM Bis-Tris-HCl pH 7.5, 40 mM KCl, 0.1 mg/mL BSA, 5% glycerol, 50 ng DNA, 50-100 ng ifpkn22 competitor, 30 min room temperature, recombinant protein, residues 1-290, protein details: His-tag (pET28 NdeI/SalI), probe letters rebuilt from the primers and the genome
T1 sequence (looked up): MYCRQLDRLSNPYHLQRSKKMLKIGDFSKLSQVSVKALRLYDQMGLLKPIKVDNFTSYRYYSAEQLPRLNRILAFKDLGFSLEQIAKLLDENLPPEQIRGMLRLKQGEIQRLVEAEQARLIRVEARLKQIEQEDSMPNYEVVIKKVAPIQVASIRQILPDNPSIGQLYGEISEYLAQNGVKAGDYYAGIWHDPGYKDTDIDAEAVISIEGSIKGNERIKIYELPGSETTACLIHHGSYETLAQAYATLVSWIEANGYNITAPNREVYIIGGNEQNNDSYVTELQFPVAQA

[2] = system: T2, NsrX (Alr1976) (Anabaena sp. strain PCC 7120); assay: EMSA; settings: 10 mM Bis-Tris-HCl pH 7.5, 40 mM KCl, 0.1 mg/mL BSA, 5% glycerol, 50 ng DNA, 50-100 ng ifpkn22 competitor, 30 min room temperature, recombinant protein, residues 1-121, protein details: His-tag (pET28 NdeI/SalI), probe letters rebuilt from the primers and the genome
T2 sequence (looked up): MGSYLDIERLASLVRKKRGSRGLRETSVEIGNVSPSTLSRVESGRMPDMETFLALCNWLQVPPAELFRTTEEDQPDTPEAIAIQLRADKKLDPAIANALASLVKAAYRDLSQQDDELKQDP

Sequence | binding result ([1]; 1 mM DTT) | binding result [2] | binding result [1] | binding result ([2]; 100 uM Mn2+)
CAACGATTTCAATACAAACCGAACCCACGGCGGCAAGACCCCTTAGCGTCGATGAATTTCAAAGTAACAAGCCCATGCCCAAGGTTTTGTAGTCTTTGTTACTCTAGCCACAATTACCTCTACGTTTTTTTATAACCTATGTTGGCAAAATGTTGAGTTTATGCCTTGTCCAGAGCGAAGTTGATAATATTATTAAATTTTTGTTATAGTTATTAAAAGTTCTTTTAGCTAAATGACTTACGTTTTAAAAACTAGCAATGTAACCCAACGTCATGAGCAAAAGAATACACAGAGTTAATTTTTGGC (double strand) [PnrrA] | binds | no binding |  | 
CACAATCCCATACCTTTGTAGCAATTTCAACTTCGCTAACTCAAATCGAATTTTATTAAGTTTGTCAGTTGTCAGTTGTCAGTTGTCAGTTGTCATTGGTCAATAGTCCATAGTTATTTTCTTCTATACCCCTACACCCTGTCTTTCTTCAATTTCATAACTGGTACATCTACTCCATATCTGAACTGAGATATACAAAACTAAACTGTGTAGTTATATAATATGATTATACTAAACCGACTAGTTTAGTCAATAGTTATTTATTGCTTTGGGCTATAAACTATTGACTGTAGGCTATGGACTCTATTGATAACG (double strand) [Pall0809-07 (devBCA)] |  |  | no binding | binds
CATCTTGGAAACCAAGTTGCACAAACATCAGTAAGACAATAAAAGCAATGCCAGCTACAGCTATAAGAAAACGAATTTTCTGTTGGACTAGCTGTAGCCATGCTAAAGGAATTTTAAAATTCATATTGATTTTGTCAGTTGACAGTTGATAGTTGATAGTTGTCAGTTGACTAATGACAATTAAATTTGAATCGCTACATCAACTTGTAAGTTGGTCAAACGTCCTACCCGTTCGCTATCTGCG (double strand) [PhgdC] |  |  | no binding | 
CATTTGGAACTCCTTAATGTTTACTTGATATTCAGTACAGTTGCACCTTGTCGCATCTTTACTGAAGTCTCTGTTTGGAGAGATACAAAAGTCATCCTTTGGGAGTATATATACTCAAAATGGCTGTACATCCCATCGGCTCTACTTTTCAATGAATCATTCTAAGGTGTTGTAGCCAGAAGTGGATAGATGAAACCATTAATTTATATGGATTTCGGCATTTTTTTTATTTTTTAGCTCATTGTTGCACTCAAAACCACCCCAAAAGTAGGAAAAAATACCTAGTAAATACCCTTGTGGCTAGGGGAACTTCGACTAAAAAACGTTGCCAATCATCTGAATTTAAAATTCCAAATTTAAAATTCCAAATTTCAGAAAGCTAGATTTACTCTGAGTTTCCGGGTTTAAAGTTCTCATCCTTTTTGAGCAAATTGTGATGACAGAATAGGTTACTCAACTACTGAATGTTAAATTGTGTTAACAAAATTAATCTCTGTCATGTTTAACCAGGGTCATTTGGCGATCGCCAAGCCTTGTCATCACC (double strand) [PhanA] |  | no binding |  | 
CCCATGTAGATGTGACTATGCCGATAATAAACATAATTTTTACTGAAATATGTTTATACAACATACCCAAGTTACAGTTAATAGCCAACAAGGTGAAAACGCTGACTAAGTAATTCGGAAATTAAAATCTAATCGTAAATTTGAATAGCTATTGGTTCAATCAGACTCTCAACAGCCAACTATAGTTAGGCTGTAATGTCTGAAAACAACCACTAAGGTTTTTTTGTAAAAAAAATTTTAGTGAAAACCTTAACCGTGTTAGTTCATCTAGAATCACGGGAACAATAGCAACAGTTAAATAGCTGACCGCAATCTATTGTTACCTGGAGCCATAGAGACGATCTTATGCCAGCAAC (double strand) [PsigC] | binds | no binding |  | 
CGAAACAAAGTTGATGACACACCTGAAATATCGTAGATTCTAAACATTAGACAGTTTTGTAGTCTTTGTTACAGAACGTCTGGATTACAGGTAATATTAACCTTTCTTTCGACATCTGCACAAAAGGGAGAAAGTTAATCTCATAGGGGTCAACTTTGACATAAAATCCTTAAGTAACAGATAGATTGTTTTTGTGCCGAATCTATTTTTAATAGCACAAAAATTTACTGGTGCGTAGTGCAACCAAATTAATATCAAACCATAGATAGCAAAGATTGGGAGAAGAAGGAATGCGCGATGCAGTAACA (double strand) [PglnA] |  |  | no binding | binds
CGAAGATTGAATCTTCCTGTGTCAGTTGTATTTCAGGTAAGCCATAACTATTATTCAGTTTTTGAGATTATATACAATAAAGTTTCTGTAAGAAGTTGTTCTAGGTTTTTAAAGCTTTTCACATCAACTTTATTTTAAAGTCAACAATAGTTTGAGTTTTTACTGAACTTTTCGTGTTTACACGTAAGTAAATCCCTCATTTTTTTTGATTTTATTAAAGCTAGACGTAGTTGTATGCTAATTACGTAAAATTACCCAATGTACGTTTTGTTCATCATCAAATTCAGGAGTGGGAGATGAGCAATTTTATCAAAAGTAAAATC (double strand) [Pasr1734 distal] | binds | no binding |  | 
CGCTGGTTATGAAGCTGGTTTGTCATCTAGAATAGAAACCGATTGCTAAAGATTATTTCTTCCAACATTCCCGATGGAAAAGGGATTATAGGTTAGAAGCTATTAGCTAGTTTTTTTATCCAGAACCAACAAAGGACTTGGCTAGACTAACAGGATTCTGACAAATAATCAGGGAAACTACTAAAAAATCGGCAGAATACTTGTTATTTGATACTAGCAAGTCACCATGTAAACATTCATATCAAAACTACTCAAACACTATGAAGTCATGCGAATTATCTAAAAGGTGAATTACTTATATTTCTTATCAGCCAAGATAATACAGGTGTTTATAAACATTTGTAGTGGTTATACAAATGAGGGTGGTTTAGTGGTTTTTGCGGGAGGGTAAGGAGATTTGAGGG (double strand) [PhepK] | binds |  |  | binds
CTAATAAGTAACCTACAAGGACTTTCCCTATTATCCGGAACTTATCTGCTCTTTAATAGCGTCAATAAATTTGCTATTTTTAAGACTTTTGGGCTGCACCCGGATTTAGGAGATAGCAACACAACGGCCAACAATGGGAGATTATAATCGCACAATCTCTCCTTGAGGTGAATACTCTATTCCTGAGTAATTTTACTCAGATGCTGACCGATTATTTCCAGAAATAACAGGAAGTGATTTTTTGAAAAAGTCACCTGCCGACTACGCCAAACTCACTAACGCCCATTGAATCAATAGAGCGTTCTTATCTGCCGAGATGCTGACAATTTTTTTGCTCTTATGGCAGTGTAGGTCGTTGGCTGGAGGGAAAATTATAGAC (double strand) [PhetR middle] | binds |  |  | binds
CTTTCTATACGGTGTCAAGTTTACTTCTATTCGGTTGGTATTTTCAGTAGACTTGACAGTACTGGAGACCTAGAATACATTAAGAAATATATAGCAATTTAATATTGACTTAATATTTTTCCTGCAAGAAAAGGCTTTTTGGCAAACCCAAAATTTTTTCTGGTCTGTCTAATATCACTTTCTAATCAGTCACAATAATATCCTGCAACCAAAAATAAAGCACTTGAAACCTAGCACTTGACGAGCAGGTAAAAACGTATATTATTAAATAACGAGCGTTCGATATAAATAATCCGTAATTATGCCTAAGATTGTTGATCATGACCAATATCGGAAAGAAC (double strand) [Palr3646-49] | binds | no binding |  | 
GCGTTTAGTTTATCCGCAAAACCATAAAGCCAATACCCACAGTCGTCACAGGTTGTATTTAAGTTTATGTTAGGGTCTAGTGAAAGCCGAGACTATGAATTCAGCCGCAACAGCAACTATTCCAACCGCAAATCTTCTGGAAGAAAACTCTTTTGGTACAGAGGTCATCTTCAAACTGATTTACAAAGAGCTAAAACAGTTTACCAAAGCTTCCGACCAGAATTGTCATGATGTAGCAAATCGTATCACTACAGAAGTATACCGAATTTGCACCGAAAGTAAACGGATTCAAGCTTCTGGTGCTGTAGAAAGTTCAGCCATGACCCTAGCCAAGCATCGGCTACAACAATGCTTGAG (double strand) [PhetZ] |  |  | no binding | binds
GCTTTGAATTTCTCAAACTTATTGAGGCTGGCTTTGGGGGTAGTTACTGTATCTGTCATGAGCTGGTTCTCATAAAGTTTTTTTGCTCAAGATCAATCCACCCGTAGTCTTTGCTAGTTCTACGAGGTCTAGTGATAGCAATTTAGTAATCTTGAAAGAACCTCTCCCCCAACCCCTCTCTCTTTAAAAGTTCTGTTCGGAGGAAACCTCCGCTCAGACTTTTCGCTCCGACGCGGAGAGGGGAGTTTGGCTCCCACTTCCCTACAAGGGAAGGGGGCTGGGGGGTAAGGTTTTTGATTAATGAATCGATGCTCTAATAGTGAA (double strand) [Pnir (fragment not stated)] | binds |  |  | 
GGAGCTTGATTGGATATGTGAGATGGCAAAACAAACGATTAACTTGTAACAAAATTGTCTCGCCCCAACCCTAAATCTACGACATATAGAGGAGCGCTAGTTCAGATACCTGTTAGGTCAACCGTTTAATATCTGCACAGCTATAAATATCACTCTGAATTTTAGTTAATTAGATTAATTTTTATTTAAAGGAATTAGAATTTAGTATCAAAAATAACAATTCAATGGTTAAATATCAAACTAATATCACAATCTAAAGCTTGACCTTGTGAACTCTCAGGGAGCTAGCTGATTCATCAAGGGGAAATTTAACCAAGATATGAGTAGACGAATTAACCGACGCAGA (double strand) [PurtA] |  |  | no binding | binds

Negatives hold for the conditions tested. At least one verdict rests on a figure or table, not on a statement of the authors. Tags and fusion partners may be left off the protein sequences shown. For some assays here: Construct, isoform or probe ends are uncertain for at least one entry.
